Experimental findings from patent publication US11319348B2, “Synthetic beta-amyloid peptides capable of forming stable antigenic oligomers” (The Regents of the University of California, priority 2016, dated 2022) are described below.

The data set relates to crosslinked trimer 4. The data set can be described thus: crystal violet absorbance and fluorescence with Aβ trimer. Format: binding.

Turning to `CN(C)c1ccc(C(=C2C=CC(=[N+](C)C)C=C2)c2ccc(N(C)C)cc2)cc1` [crystal violet], the light emission result (bound to an Aβ trimer, when stimulated) is recorded as “around 640 nm”. In addition, the peak absorbance entry is, setting by setting: (bound within an Aβ trimer) “around 600 nm”; (crystal violet in solution, no trimer) “around 540 nm”.
